Source: PMC9732331
These are yes or no findings as the source states them, for the method shown. In cells and extracts the contact can be indirect. Some binding calls cover weakened binding; strength is not graded here.

Protein sequences, listed by entry. Tags and fused reporters are not part of them.
UniProt Q9UM11: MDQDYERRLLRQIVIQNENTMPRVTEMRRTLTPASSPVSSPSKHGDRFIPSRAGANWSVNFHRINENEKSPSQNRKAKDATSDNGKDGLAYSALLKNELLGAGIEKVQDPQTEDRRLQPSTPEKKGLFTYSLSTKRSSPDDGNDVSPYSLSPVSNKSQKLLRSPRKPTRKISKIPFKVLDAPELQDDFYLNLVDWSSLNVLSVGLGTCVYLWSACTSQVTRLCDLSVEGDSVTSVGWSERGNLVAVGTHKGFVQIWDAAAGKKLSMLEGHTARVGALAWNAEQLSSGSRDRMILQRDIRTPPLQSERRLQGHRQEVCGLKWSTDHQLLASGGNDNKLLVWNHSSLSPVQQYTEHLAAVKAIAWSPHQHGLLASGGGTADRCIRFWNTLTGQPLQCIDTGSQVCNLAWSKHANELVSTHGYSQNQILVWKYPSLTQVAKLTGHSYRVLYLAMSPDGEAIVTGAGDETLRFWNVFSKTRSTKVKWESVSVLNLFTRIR

Target: FLAG-tagged CDH1 (UniProt Q9UM11)
Experiment: co-IP; HEK293T cells co-transfected with FLAG-CDH1 and STYK1/NOK or its mutants or truncated forms, 10 μM MG132 for 4 h before harvesting; about 2000 μg lysate with anti-FLAG affinity gel at 4 °C overnight, washed 6 times with 1xPBS, immunoblot

binding: binds
B1: STYK1/NOK (protein, UniProt Q6J9G0 1-422)
chain: MGMTRMLLECSLSDKLCVIQEKQYEVIIVPTLLVTIFLILLGVILWLFIREQRTQQQRSGPQGIAPVPPPRDLSWEAGHGGNVALPLKETSVENFLGATTPALAKLQVPREQLSEVLEQICSGSCGPIFRANMNTGDPSKPKSVILKALKEPAGLHEVQDFLGRIQFHQYLGKHKNLVQLEGCCTEKLPLYMVLEDVAQGDLLSFLWTCRRDVMTMDGLLYDLTEKQVYHIGKQVLLALEFLQEKHLFHGDVAARNILMQSDLTAKLCGLGLAYEVYTRGAISSTQTIPLKWLAPERLLLRPASIRADVWSFGILLYEMVTLGAPPYPEVPPTSILEHLQRRKIMKRPSSCTHTMYSIMKSCWRWREADRPSPRELRLRLEAAIKTADDEAVLQVPELVVPELYAAVAGIRVESLFYNYSML
